Experimental data from the supplement of paper PMC10849652.
This is one part of the list.

Amino acid sequences for entries named in this document (tags omitted). A change or cut given only in a name is not applied to a line headed by its entry.
UniProt Q9UNS2: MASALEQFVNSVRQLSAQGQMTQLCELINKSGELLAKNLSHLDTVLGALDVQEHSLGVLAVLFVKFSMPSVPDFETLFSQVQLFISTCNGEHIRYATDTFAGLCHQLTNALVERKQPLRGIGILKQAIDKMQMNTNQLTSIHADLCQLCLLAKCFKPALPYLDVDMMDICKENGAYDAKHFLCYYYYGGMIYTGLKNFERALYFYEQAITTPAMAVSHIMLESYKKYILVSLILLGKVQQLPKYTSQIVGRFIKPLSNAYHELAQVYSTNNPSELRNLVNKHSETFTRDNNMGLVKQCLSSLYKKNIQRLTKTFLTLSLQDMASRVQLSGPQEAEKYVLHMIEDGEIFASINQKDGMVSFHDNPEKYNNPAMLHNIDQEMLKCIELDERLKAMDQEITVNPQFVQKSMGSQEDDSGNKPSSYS
UniProt Q9H9Q2: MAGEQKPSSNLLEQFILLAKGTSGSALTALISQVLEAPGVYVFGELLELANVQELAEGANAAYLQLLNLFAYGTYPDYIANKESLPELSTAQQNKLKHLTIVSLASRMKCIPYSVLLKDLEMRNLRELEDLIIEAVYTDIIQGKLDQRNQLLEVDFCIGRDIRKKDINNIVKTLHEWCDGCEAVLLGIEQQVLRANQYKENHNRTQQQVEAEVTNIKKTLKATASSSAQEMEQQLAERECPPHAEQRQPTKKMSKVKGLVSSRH
UniProt Q9Y6N1: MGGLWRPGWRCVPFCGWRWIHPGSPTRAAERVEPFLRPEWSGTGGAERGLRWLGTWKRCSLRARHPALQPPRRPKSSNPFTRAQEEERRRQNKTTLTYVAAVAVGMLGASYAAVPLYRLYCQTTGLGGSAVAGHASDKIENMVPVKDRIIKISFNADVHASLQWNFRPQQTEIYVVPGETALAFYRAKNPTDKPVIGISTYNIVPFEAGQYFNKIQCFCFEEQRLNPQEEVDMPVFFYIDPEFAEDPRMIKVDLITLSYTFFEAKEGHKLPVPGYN
UniProt Q9H3G5: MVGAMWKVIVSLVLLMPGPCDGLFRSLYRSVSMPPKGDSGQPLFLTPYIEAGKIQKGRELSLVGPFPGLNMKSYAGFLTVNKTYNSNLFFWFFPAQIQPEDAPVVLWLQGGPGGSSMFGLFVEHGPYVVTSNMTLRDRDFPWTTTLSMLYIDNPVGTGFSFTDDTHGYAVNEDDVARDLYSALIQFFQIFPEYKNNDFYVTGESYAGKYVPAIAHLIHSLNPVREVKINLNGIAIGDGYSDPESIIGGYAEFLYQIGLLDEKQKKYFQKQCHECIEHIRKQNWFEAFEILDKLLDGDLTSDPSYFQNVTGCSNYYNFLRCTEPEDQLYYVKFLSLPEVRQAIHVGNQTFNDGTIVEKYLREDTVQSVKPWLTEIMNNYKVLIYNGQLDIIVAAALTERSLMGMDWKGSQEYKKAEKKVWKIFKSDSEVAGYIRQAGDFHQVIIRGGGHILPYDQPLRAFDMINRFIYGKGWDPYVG
UniProt A4D0V7: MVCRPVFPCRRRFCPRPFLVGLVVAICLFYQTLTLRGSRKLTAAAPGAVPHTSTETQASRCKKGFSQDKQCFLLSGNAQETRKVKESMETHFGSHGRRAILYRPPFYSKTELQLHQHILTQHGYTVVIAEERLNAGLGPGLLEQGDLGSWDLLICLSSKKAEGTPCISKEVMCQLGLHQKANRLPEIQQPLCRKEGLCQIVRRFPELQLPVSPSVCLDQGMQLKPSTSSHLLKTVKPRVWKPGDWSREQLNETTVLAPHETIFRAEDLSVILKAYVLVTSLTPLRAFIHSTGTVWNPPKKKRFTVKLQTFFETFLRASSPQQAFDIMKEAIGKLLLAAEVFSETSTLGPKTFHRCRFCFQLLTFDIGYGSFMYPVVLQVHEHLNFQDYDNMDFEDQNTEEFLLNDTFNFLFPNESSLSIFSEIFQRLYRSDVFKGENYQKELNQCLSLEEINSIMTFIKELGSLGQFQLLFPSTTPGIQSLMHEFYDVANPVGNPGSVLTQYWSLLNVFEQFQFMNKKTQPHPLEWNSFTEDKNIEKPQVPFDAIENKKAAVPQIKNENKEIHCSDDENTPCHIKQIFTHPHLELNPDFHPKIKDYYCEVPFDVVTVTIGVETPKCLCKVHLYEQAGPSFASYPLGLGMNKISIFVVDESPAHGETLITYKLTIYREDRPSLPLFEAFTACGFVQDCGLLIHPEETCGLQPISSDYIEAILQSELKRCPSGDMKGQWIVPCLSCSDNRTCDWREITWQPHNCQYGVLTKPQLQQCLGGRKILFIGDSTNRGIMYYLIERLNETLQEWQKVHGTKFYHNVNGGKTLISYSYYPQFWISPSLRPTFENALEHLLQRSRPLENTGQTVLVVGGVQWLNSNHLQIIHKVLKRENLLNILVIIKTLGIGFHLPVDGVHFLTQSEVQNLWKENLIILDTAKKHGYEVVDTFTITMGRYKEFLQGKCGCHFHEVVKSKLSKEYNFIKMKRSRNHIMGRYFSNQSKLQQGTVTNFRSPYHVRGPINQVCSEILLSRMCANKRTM
UniProt Q9GZQ3, whole entry, looked up: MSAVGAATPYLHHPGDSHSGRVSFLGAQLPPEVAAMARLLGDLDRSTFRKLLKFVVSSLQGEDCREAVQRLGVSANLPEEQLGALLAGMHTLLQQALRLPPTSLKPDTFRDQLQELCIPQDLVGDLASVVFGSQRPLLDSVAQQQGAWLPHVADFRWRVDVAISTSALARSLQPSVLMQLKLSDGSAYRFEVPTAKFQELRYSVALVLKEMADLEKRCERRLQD
UniProt P61923: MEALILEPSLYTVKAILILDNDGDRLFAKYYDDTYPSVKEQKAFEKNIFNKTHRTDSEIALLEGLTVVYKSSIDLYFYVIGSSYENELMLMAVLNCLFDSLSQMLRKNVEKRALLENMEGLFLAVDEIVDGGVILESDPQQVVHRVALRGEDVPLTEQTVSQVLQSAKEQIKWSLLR
UniProt P23786: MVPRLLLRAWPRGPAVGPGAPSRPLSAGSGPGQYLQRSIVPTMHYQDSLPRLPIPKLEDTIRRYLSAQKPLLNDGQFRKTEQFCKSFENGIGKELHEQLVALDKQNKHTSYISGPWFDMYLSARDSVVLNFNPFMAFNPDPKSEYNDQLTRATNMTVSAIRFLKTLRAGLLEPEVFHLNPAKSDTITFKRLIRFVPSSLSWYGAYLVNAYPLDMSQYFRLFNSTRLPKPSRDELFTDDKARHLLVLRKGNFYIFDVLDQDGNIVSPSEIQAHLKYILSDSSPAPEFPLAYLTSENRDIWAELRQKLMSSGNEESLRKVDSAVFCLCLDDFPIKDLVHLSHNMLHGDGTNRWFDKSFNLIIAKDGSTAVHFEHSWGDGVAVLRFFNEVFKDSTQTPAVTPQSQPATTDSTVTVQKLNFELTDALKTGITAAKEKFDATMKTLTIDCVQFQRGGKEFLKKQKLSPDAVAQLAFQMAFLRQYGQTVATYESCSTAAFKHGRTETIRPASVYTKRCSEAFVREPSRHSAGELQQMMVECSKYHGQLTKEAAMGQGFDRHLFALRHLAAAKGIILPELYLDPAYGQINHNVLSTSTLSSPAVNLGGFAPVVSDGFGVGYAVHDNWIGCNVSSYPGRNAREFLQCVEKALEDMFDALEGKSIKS
UniProt Q9BR76, whole entry, looked up: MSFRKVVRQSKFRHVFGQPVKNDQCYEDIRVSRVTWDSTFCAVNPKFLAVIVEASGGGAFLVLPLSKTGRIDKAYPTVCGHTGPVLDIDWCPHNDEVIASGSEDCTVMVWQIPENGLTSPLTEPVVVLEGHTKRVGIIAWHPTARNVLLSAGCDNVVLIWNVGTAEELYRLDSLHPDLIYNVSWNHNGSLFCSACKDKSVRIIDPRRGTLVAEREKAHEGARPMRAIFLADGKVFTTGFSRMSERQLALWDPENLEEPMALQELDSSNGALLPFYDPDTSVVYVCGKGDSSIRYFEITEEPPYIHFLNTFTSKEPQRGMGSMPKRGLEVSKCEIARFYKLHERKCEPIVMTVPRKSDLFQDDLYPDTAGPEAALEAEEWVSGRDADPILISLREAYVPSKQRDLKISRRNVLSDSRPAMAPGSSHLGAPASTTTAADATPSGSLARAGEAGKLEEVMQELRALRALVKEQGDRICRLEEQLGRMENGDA
UniProt P55060: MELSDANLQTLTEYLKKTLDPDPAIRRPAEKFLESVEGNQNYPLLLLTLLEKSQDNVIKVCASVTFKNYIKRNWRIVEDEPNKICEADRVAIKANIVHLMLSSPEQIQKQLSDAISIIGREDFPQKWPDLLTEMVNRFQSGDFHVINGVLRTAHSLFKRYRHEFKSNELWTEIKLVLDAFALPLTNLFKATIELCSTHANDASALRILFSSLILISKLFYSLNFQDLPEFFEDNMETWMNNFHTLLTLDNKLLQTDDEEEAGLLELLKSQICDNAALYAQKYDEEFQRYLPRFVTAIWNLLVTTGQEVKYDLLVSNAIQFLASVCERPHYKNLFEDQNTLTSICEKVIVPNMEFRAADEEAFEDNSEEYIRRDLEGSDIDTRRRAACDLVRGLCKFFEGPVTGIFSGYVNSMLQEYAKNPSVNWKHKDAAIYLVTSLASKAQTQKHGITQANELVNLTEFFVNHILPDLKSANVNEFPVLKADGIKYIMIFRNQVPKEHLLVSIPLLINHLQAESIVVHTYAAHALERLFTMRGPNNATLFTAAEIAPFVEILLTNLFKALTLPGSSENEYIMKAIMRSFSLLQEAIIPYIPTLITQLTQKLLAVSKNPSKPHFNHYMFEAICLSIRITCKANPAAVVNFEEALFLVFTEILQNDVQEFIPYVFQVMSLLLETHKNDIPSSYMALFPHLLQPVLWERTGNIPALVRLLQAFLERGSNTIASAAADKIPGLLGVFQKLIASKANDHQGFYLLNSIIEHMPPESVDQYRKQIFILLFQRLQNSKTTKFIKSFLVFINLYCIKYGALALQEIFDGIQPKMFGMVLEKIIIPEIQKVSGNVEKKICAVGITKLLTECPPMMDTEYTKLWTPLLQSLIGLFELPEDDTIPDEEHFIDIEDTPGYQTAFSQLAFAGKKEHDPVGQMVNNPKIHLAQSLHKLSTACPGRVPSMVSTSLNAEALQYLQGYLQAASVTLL
UniProt P68400, whole entry, looked up: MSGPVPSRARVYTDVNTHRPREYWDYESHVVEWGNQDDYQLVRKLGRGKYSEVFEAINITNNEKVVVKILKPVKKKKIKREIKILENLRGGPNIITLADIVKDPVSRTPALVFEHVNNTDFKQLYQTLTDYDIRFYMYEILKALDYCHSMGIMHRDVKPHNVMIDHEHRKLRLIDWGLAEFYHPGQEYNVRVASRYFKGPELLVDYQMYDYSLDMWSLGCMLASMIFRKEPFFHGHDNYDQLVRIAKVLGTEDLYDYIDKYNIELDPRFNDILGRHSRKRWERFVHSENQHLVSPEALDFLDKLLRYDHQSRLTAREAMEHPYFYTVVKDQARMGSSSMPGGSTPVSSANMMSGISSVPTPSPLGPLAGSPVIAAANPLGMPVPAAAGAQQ
UniProt P46108: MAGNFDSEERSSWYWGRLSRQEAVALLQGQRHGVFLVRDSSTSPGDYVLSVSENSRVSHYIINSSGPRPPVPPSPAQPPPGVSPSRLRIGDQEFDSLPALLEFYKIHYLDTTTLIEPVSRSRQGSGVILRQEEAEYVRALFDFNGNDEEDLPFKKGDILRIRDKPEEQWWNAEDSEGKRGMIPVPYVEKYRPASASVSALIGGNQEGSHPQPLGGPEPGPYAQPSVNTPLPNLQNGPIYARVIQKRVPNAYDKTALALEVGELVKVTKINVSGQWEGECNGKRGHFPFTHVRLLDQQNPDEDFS
UniProt Q9UBF2: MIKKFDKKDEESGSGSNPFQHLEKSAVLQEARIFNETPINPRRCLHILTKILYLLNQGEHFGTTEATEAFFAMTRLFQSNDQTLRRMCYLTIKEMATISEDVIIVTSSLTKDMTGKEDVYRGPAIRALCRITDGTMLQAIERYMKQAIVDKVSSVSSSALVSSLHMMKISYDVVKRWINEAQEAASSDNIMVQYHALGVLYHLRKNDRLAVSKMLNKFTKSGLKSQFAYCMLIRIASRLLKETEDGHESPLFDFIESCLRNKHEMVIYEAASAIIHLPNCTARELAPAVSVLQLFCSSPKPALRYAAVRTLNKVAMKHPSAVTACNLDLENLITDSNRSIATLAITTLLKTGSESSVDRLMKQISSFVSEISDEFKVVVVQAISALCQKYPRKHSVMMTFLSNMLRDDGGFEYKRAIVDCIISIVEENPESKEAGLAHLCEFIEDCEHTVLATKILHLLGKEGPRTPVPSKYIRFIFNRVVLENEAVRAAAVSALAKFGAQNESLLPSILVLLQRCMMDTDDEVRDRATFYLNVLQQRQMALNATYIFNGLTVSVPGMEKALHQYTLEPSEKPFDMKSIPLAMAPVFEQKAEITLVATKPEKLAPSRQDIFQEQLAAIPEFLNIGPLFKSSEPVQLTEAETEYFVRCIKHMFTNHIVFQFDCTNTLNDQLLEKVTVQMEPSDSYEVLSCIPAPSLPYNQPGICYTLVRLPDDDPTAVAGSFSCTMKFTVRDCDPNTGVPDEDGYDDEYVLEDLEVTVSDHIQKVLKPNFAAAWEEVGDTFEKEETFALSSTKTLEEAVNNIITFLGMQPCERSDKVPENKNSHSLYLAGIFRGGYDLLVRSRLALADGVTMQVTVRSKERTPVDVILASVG

Columns and labels:
Experiment in all cases: log2 fold change, soluble protein after heating vs DMSO (PISA); higher = thermal stabilisation; K562 cells, 10 uM, 30 min; active = over 0.2 and 3.5 SD of the protein, either way, in both replicates (recomputed)
[1] = compound: COC1=CC=C(C=C1)CN2C=CC3=C2C=C(C=C3)C(=O)NO
Method in brief: (§1)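 Quantification of soluble protein used TMTpro 16plex LC-MS/MS, with channel sums equalised. Samples were the supernatant after 21,000xg for 90 min of pooled aliquots from K562 cells (2×10^6 cells/mL) treated with 10 μM compound for 30 min, heated for 3 min over 48°C-58°C, and extracted in PBS with 0.5% NP-40 at 4°C. Values, from duplicates, describe thermal stability against control samples on a log2 fold-change scale.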

[2] = compound: CON(C)C(=O)N1N=C(c2cc(F)ccc2F)S[C@@]1(CCCN)c1ccccc1 [filanesib]
Method in brief: as §1

[3] = compound: CO[C@H]1C[C@@H]2CC[C@@H](C)[C@@](O)(O2)C(=O)C(=O)N2CCCC[C@H]2C(=O)O[C@H]([C@H](C)C[C@@H]2CC[C@H](n3cnnn3)[C@H](OC)C2)CC(=O)[C@H](C)/C=C(\C)[C@@H](O)[C@@H](OC)C(=O)[C@H](C)C[C@H](C)/C=C/C=C/C=C/1C [zotarolimus]
Method in brief: as §1

[4] = compound: COc1cc(C(=O)O)ccc1NC(=O)[C@@H]1N[C@@H](CC(C)(C)C)[C@](C#N)(c2ccc(Cl)cc2F)[C@H]1c1cccc(Cl)c1F [idasanutlin]
Method in brief: as §1

[5] = compound: COc1cc(Nc2ncc3c(n2)-c2ccc(Cl)cc2C(c2c(F)cccc2OC)=NC3)ccc1C(=O)O [alisertib]
Method in brief: as §1

[6] = compound: COc1cc2nc(-c3cc(F)ccc3O)nc(N[C@@H]3CNC[C@H]3C(C)(C)O)c2cc1OC
Method in brief: as §1

[7] = compound: COc1cc2ncnc(Nc3ccc(F)c(Cl)c3)c2cc1OCCCN1CCOCC1 [gefitinib]
Method in brief: as §1

[8] = compound: COc1cccc2cc(-c3nc([C@H]4CC[C@H](C(=O)O)CC4)n4ncnc(N)c34)[nH]c12
Method in brief: as §1

[9] = compound: CS(=O)(=O)CCNCc1ccc(-c2ccc3ncnc(Nc4ccc(OCc5cccc(F)c5)c(Cl)c4)c3c2)o1 [lapatinib]
Method in brief: as §1

[10] = compound: CS(=O)(=O)N1CCN(Cc2cc3nc(-c4cccc5[nH]ncc45)nc(N4CCOCC4)c3s2)CC1 [pictilisib]
Method in brief: as §1

Target	log2 fold change [1]	log2 fold change [2]	log2 fold change [3]	log2 fold change [4]	log2 fold change [5]	log2 fold change [6]	log2 fold change [7]	log2 fold change [8]	log2 fold change [9]	log2 fold change [10]
COQ7 (UniProt Q99807)	inactive: 0.001	inactive: -0.098	inactive: -0.081	inactive: 0.026	inactive: 0.115	inactive: 0.011	inactive: 0.055	inactive: 0.031	inactive: 0.042	inactive: 0.074
CS (UniProt O75390)	inactive: 0.012	inactive: -0.172	inactive: 0.011	inactive: -0.033	inactive: -0.013	inactive: -0.139	inactive: 0.041	inactive: 0.059	inactive: -0.027	inactive: 0.099
CPQ (UniProt Q9Y646)	inactive: -0.014	inactive: -0.05	inactive: -0.058	inactive: -0.093	inactive: -0.054	inactive: 0.01	inactive: 0.038	inactive: 0.047	inactive: -0.014	inactive: 0.027
CRIPT (UniProt Q9P021)	inactive: -0.084	inactive: -0.111	inactive: 0.043	inactive: -0.031	inactive: -0.003	inactive: -0.033	inactive: -0.089	inactive: -0.01	inactive: -0.042	inactive: 0.042
COPS3 (UniProt Q9UNS2)	inactive: 0.12	inactive: -0.035	inactive: -0.004	inactive: -0.09	inactive: -0.012	inactive: 0.008	inactive: -0.031	inactive: 0.052	inactive: -0.015	inactive: -0.063
COPS7B (UniProt Q9H9Q2)	inactive: 0.093	inactive: 0.013	inactive: 0.02	inactive: 0.02	inactive: -0.027	inactive: -0.01	inactive: -0.008	inactive: 0.04	inactive: 0.032	inactive: 0.018
CPNE2 (UniProt Q96FN4)	inactive: -0.075	inactive: -0.221	inactive: -0.237	inactive: -0.08	inactive: 0.163	inactive: 0.086	inactive: 0.029	inactive: -0.215	inactive: 0.028	inactive: -0.057
COX11 (UniProt Q9Y6N1)	inactive: 0.083	inactive: -0.07	inactive: 0.11	inactive: -0.017	inactive: -0.023	inactive: 0.042	inactive: 0.017	inactive: 0.08	inactive: -0.013	inactive: 0.039
CPVL (UniProt Q9H3G5)	inactive: -0.103	inactive: -0.012	inactive: -0.121	inactive: -0.003	inactive: 0.026	inactive: -0.041	inactive: 0.043	inactive: 0.035	inactive: -0.079	inactive: 0.12
COMMD8 (UniProt Q9NX08)	inactive: 0.127	inactive: -0.048	inactive: 0.076	inactive: -0.04	inactive: -0.034	inactive: -0.12	inactive: -0.009	inactive: -0.069	inactive: -0.073	inactive: 0.059
CREBBP (UniProt Q92793)	inactive: 0.025	inactive: 0.003	inactive: 0.017	inactive: -0.04	inactive: -0.023	inactive: 0.035	inactive: 0.063	inactive: 0.017	inactive: 0.02	inactive: 0.038
CPED1 (UniProt A4D0V7)	inactive: -0.059	inactive: 0.175	inactive: -0.004	inactive: 0.09	inactive: -0.018	inactive: -0.02	inactive: 0.08	inactive: -0.051	inactive: 0.139	inactive: -0.051
COPA isoform 2 (UniProt P53621)	inactive: 0.004	inactive: 0.017	inactive: 0.036	inactive: -0.038	inactive: -0.084	inactive: 0.092	inactive: 0.036	inactive: -0.011	inactive: 0.018	inactive: 0.015
CPT1A (UniProt P50416)	inactive: 0.073	inactive: 0.204	inactive: 0.118	inactive: 0.086	inactive: 0.235	inactive: 0.308	inactive: 0.028	inactive: -0.151	inactive: 0.1	inactive: 0.257
COMMD5 (UniProt Q9GZQ3)	inactive: 0.068	inactive: 0.028	inactive: 0.022	inactive: -0.132	inactive: -0.012	inactive: -0.007	inactive: -0.013	inactive: 0.006	inactive: 0.075	inactive: -0.081
CRYZ (UniProt Q08257)	inactive: -0.006	inactive: -0.042	inactive: -0.003	inactive: -0.064	inactive: 0.013	inactive: 0.035	inactive: -0.005	inactive: 0.06	inactive: -0.069	inactive: 0.048
COPZ1 isoform 4 (UniProt P61923)	inactive: -0.16	inactive: 0.034	inactive: 0.099	inactive: -0.061	inactive: 0.002	inactive: -0.019	inactive: 0.052	inactive: -0.002	inactive: -0.055	inactive: -0.084
CPT2 (UniProt P23786)	inactive: 0.114	inactive: -0.207	active: 0.798	active: 0.806	inactive: -0.067	inactive: -0.199	inactive: 0.343	inactive: -0.005	inactive: 0.058	inactive: 0.57
CORO1B (UniProt Q9BR76)	inactive: 0.116	inactive: 0	inactive: 0.015	inactive: -0.015	inactive: -0.032	inactive: 0.099	inactive: 0.064	inactive: -0.009	inactive: -0.02	inactive: 0.027
CSNK2B (UniProt P67870)	inactive: 0.113	inactive: -0.006	inactive: -0.002	inactive: -0.026	inactive: -0.013	inactive: -0.196	inactive: -0.013	inactive: 0.028	inactive: 0.04	inactive: 0.079
COMMD7 (UniProt Q86VX2)	inactive: 0.018	inactive: 0.07	inactive: 0.016	inactive: -0.003	inactive: -0.019	inactive: 0.026	inactive: -0.053	inactive: 0.035	inactive: 0.005	inactive: 0.053
COX7A2L (UniProt O14548)	inactive: -0.048	inactive: -0.019	inactive: -0.04	inactive: 0.001	inactive: -0.04	inactive: -0.085	inactive: 0.014	inactive: 0.035	inactive: -0.054	inactive: -0.05
CSE1L (UniProt P55060)	inactive: 0.024	inactive: -0.1	inactive: 0.027	inactive: -0.135	inactive: -0.059	inactive: 0.005	inactive: -0.018	inactive: -0.019	inactive: -0.036	inactive: -0.015
CSNK2A1 (UniProt P68400)	inactive: -0.025	inactive: 0.03	inactive: -0.015	inactive: -0.009	inactive: -0.073	inactive: -0.167	inactive: -0.023	inactive: 0.066	inactive: 0.032	inactive: 0.102
CPOX (UniProt P36551)	inactive: 0.057	inactive: -0.075	inactive: -0.018	inactive: 0.021	inactive: -0.054	inactive: -0.006	inactive: 0.033	inactive: 0.007	inactive: -0.03	inactive: 0.067
CRK (UniProt P46108)	inactive: 0.072	inactive: 0.008	inactive: 0.144	inactive: 0.061	inactive: -0.107	inactive: 0.011	inactive: -0.006	inactive: 0.025	inactive: 0.012	inactive: 0.043
CSNK2A2 (UniProt P19784)	inactive: -0.042	inactive: -0.019	inactive: -0.003	inactive: -0.094	inactive: 0.001	inactive: -0.177	inactive: -0.031	inactive: 0.033	inactive: 0.02	inactive: 0.128
COPS7A (UniProt Q9UBW8)	inactive: 0.037	inactive: -0.049	inactive: -0.026	inactive: -0.005	inactive: 0.008	inactive: 0.021	inactive: 0.007	inactive: 0.012	inactive: 0.016	inactive: 0.07
COX15 (UniProt Q7KZN9)	inactive: 0.04	inactive: -0.046	inactive: 0.005	inactive: -0.055	inactive: -0.054	inactive: -0.012	inactive: -0.001	inactive: 0.052	inactive: 0.001	inactive: 0.071
COPG2 (UniProt Q9UBF2)	inactive: 0.005	inactive: -0.009	inactive: 0.046	inactive: -0.076	inactive: -0.032	inactive: 0.132	inactive: 0.033	inactive: -0.014	inactive: -0.009	inactive: 0.01

Look-ups from above.
log2 fold change [8] with COMMD7 (UniProt Q86VX2) reads inactive: 0.035
log2 fold change [10] with COPA isoform 2 (UniProt P53621) reads inactive: 0.015

A second format for part of the listing above.
Target,log2 fold change [1],log2 fold change [2],log2 fold change [3],log2 fold change [4],log2 fold change [5],log2 fold change [6],log2 fold change [7],log2 fold change [8],log2 fold change [9],log2 fold change [10]
COPS3 (UniProt Q9UNS2),inactive: 0.12,inactive: -0.035,inactive: -0.004,inactive: -0.09,inactive: -0.012,inactive: 0.008,inactive: -0.031,inactive: 0.052,inactive: -0.015,inactive: -0.063
COPS7B (UniProt Q9H9Q2),inactive: 0.093,inactive: 0.013,inactive: 0.02,inactive: 0.02,inactive: -0.027,inactive: -0.01,inactive: -0.008,inactive: 0.04,inactive: 0.032,inactive: 0.018
